The experiment concerns the target Cerebellar zinc finger 2 (ZIC2) (human (endogenous in CTBPH1)) (UniProt O95409). The experiment in a line: co-IP; total cell lysates (RIPA buffer with protease inhibitors) incubated with anti-ZIC2 antibody or IgG control overnight at 4 °C, protein A/G agarose; immunoblot with anti-MTF1; BPH1 and CTBPH1 cells. (Immunoblotting shows a protein as a band on a membrane.)

By UniProt entry, the sequences of proteins in these tests, tags left out.
UniProt O95409: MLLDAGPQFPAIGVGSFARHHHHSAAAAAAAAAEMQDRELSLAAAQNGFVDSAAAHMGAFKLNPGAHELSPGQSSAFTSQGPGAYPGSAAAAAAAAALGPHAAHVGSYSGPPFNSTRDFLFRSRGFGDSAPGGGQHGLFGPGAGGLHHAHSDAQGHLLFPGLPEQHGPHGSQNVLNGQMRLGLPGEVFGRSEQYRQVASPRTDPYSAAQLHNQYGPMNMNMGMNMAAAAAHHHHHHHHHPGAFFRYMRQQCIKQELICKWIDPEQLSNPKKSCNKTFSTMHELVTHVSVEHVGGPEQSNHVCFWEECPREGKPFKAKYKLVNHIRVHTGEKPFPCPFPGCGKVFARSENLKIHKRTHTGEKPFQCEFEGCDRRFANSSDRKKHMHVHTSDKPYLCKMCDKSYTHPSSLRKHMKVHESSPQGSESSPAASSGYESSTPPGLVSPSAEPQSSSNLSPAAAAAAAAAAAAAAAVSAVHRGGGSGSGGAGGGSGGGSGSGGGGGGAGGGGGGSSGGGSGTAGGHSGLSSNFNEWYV
UniProt Q14872: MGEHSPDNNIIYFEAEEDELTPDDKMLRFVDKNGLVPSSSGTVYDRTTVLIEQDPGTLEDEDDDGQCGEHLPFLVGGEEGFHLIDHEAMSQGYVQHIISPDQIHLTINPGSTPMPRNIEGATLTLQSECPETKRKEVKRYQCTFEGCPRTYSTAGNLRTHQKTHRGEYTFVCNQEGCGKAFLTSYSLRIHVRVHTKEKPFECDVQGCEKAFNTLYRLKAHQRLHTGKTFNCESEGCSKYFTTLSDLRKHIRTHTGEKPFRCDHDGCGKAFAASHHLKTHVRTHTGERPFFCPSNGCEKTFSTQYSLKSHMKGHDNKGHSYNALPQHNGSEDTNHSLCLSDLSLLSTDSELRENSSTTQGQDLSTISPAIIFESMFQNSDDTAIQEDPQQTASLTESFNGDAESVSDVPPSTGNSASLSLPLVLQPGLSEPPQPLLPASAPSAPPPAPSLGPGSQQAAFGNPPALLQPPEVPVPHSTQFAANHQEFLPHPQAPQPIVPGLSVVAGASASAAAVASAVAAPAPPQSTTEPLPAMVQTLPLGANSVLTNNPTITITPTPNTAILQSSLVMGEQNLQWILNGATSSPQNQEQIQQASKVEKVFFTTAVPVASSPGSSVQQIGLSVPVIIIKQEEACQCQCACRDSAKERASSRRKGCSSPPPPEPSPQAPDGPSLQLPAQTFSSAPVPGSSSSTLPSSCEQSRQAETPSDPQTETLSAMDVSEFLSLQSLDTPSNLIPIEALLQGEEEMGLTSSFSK

No constants are given. Whether binding was seen depends on the method and setting. Binding seen in cells or lysates may run through a third protein. Some binding calls cover weakened binding; strength is not graded here.

For “Metal-responsive transcription factor-1 (MTF1) (from UniProt Q14872 1-753)”, the binding entry is given as “binds”.

The record behind these values is publication PMC12160861.
